{"sequences": {"note": "Protein sequences, listed by entry. Tags and fused reporters are not part of them.", "UniProt P11413": "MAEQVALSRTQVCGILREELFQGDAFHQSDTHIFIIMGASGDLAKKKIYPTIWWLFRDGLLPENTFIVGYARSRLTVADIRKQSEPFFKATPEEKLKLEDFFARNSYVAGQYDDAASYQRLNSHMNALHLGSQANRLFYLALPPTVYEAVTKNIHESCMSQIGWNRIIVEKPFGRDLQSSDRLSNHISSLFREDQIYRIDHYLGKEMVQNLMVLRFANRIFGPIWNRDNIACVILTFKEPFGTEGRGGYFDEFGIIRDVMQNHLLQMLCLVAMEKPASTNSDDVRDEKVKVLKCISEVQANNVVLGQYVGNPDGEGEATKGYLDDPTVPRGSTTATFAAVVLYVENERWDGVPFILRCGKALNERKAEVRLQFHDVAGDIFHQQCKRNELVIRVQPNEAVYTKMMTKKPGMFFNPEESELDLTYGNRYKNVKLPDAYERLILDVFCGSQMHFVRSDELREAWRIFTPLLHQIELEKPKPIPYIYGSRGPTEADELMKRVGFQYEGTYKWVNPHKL", "UniProt P11142": "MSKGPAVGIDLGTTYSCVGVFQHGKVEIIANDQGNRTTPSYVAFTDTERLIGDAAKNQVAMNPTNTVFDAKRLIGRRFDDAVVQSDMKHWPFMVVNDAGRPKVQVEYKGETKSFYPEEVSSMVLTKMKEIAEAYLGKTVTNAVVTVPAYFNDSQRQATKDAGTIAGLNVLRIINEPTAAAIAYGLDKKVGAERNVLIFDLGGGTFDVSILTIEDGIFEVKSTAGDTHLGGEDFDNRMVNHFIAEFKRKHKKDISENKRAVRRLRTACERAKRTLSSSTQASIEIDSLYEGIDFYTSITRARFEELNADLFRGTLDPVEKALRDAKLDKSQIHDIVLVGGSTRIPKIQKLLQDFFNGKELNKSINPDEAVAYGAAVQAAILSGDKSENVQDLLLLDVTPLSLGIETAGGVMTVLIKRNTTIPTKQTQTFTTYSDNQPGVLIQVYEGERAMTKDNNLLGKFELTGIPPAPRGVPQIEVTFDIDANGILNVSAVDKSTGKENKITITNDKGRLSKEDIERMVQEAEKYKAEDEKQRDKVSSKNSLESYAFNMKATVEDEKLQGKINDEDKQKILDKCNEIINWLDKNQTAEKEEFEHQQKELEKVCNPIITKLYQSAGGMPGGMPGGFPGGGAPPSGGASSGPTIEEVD"}, "source": "paper PMC10558571", "target": "Glucose-6-phosphate dehydrogenase (G6PD), 3×flag-tagged, overexpressed in SBC2 cells (UniProt P11413)", "assay": "co-IP; whole cell lysates of SBC2 cells with G6PD overexpression, anti-Flag antibody (mouse) or anti-IgG antibody (mouse), 12 h at 4 °C, washed three times with TBS, immunoblotting; cells with or without GSK2126458", "note": "No constants are given. Whether binding was seen depends on the method and setting. Binding seen in cells or lysates may run through a third protein. Some binding calls cover weakened binding; strength is not graded here.", "data": [{"substance": "HSPA8/HSC70 (from UniProt P11142 1-646)", "values": [{"measurement": "binding", "value": "binds"}]}]}
